Some of the results follow.
How the values were obtained:
Assay in all cases: glycan array binding signal (z-score within array); higher = stronger binding
Settings in all cases: glycan notation: IUPAC condensed, linker removed
[1] = molecular target: Neu5Ac(a2-3)[Neu5Ac(a2-6)]GalNAc
Summary of the method: (§1)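 The binding signal is a Z-score computed within each array. Data were drawn from 3228 arrays in the Consortium for Functional Glycomics database, restricted to those with a known protein sequence. Scores were averaged over arrays of the same protein sequence at different concentrations or buffers, and over linkers, and negative values can be taken as non-binding.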

[2] = molecular target: Neu5Ac(a2-6)Gal
Summary of the method: as §1

[3] = molecular target: Neu5Ac(a2-6)Gal(b1-3)GlcNAc(b1-3)[Gal(b1-4)GlcNAc(b1-6)]Gal(b1-4)Glc
Summary of the method: as §1

[4] = molecular target: Neu5Ac(a2-6)Gal(b1-4)Glc
Summary of the method: as §1

[5] = molecular target: Neu5Ac(a2-6)Gal(b1-4)GlcNAc
Summary of the method: as §1

[6] = molecular target: Neu5Ac(a2-6)Gal(b1-4)GlcNAc(b1-2)Man
Summary of the method: as §1

[7] = molecular target: Neu5Ac(a2-6)Gal(b1-4)GlcNAc(b1-2)Man(a1-3)Man(b1-4)GlcNAc(b1-4)GlcNAc
Summary of the method: as §1

[8] = molecular target: Neu5Ac(a2-6)Gal(b1-4)GlcNAc(b1-2)Man(a1-3)[Gal(b1-4)GlcNAc(b1-2)Man(a1-6)]Man(b1-4)GlcNAc(b1-4)GlcNAc
Summary of the method: as §1

[9] = molecular target: Neu5Ac(a2-6)Gal(b1-4)GlcNAc(b1-2)Man(a1-3)[GlcNAc(b1-2)Man(a1-6)]Man(b1-4)GlcNAc(b1-4)GlcNAc
Summary of the method: as §1

[10] = molecular target: Neu5Ac(a2-6)Gal(b1-4)GlcNAc(b1-2)Man(a1-3)[GlcNAc(b1-2)Man(b1-4)GlcNAc(b1-2)Man(a1-6)]Man(b1-4)GlcNAc(b1-4)GlcNAc
Summary of the method: as §1

[11] = molecular target: Neu5Ac(a2-6)Gal(b1-4)GlcNAc(b1-2)Man(a1-3)[GlcNAc(b1-4)][Neu5Ac(a2-6)Gal(b1-4)GlcNAc(b1-2)Man(a1-6)]Man(b1-4)GlcNAc(b1-4)GlcNAc
Summary of the method: as §1

[12] = molecular target: Neu5Ac(a2-6)Gal(b1-4)GlcNAc(b1-2)Man(a1-3)[Man(a1-6)]Man(b1-4)GlcNAc(b1-4)GlcNAc
Summary of the method: as §1

[13] = molecular target: Neu5Ac(a2-6)Gal(b1-4)GlcNAc(b1-2)Man(a1-3)[Neu5Ac(a2-3)Gal(b1-4)GlcNAc(b1-2)Man(a1-6)]Man(b1-4)GlcNAc(b1-4)GlcNAc
Summary of the method: as §1

[14] = molecular target: Neu5Ac(a2-6)Gal(b1-4)GlcNAc(b1-2)Man(a1-3)[Neu5Ac(a2-6)Gal(b1-4)GlcNAc(b1-2)Man(a1-6)]Man(b1-4)GlcNAc(b1-4)GlcNAc
Summary of the method: as §1

[15] = molecular target: Neu5Ac(a2-6)Gal(b1-4)GlcNAc(b1-2)Man(a1-3)[Neu5Ac(a2-6)Gal(b1-4)GlcNAc(b1-2)Man(a1-6)]Man(b1-4)GlcNAc(b1-4)[Fuc(a1-6)]GlcNAc
Summary of the method: as §1

[16] = molecular target: Neu5Ac(a2-6)Gal(b1-4)GlcNAc(b1-2)Man(a1-6)Man(b1-4)GlcNAc(b1-4)GlcNAc
Summary of the method: as §1

[17] = molecular target: Neu5Ac(a2-6)Gal(b1-4)GlcNAc(b1-2)Man(a1-6)[Gal(b1-4)GlcNAc(b1-2)Man(a1-3)]Man(b1-4)GlcNAc(b1-4)GlcNAc
Summary of the method: as §1

[18] = molecular target: Neu5Ac(a2-6)Gal(b1-4)GlcNAc(b1-2)Man(a1-6)[GlcNAc(b1-2)Man(a1-3)]Man(b1-4)GlcNAc(b1-4)GlcNAc
Summary of the method: as §1

[19] = molecular target: Neu5Ac(a2-6)Gal(b1-4)GlcNAc(b1-2)Man(a1-6)[Man(a1-3)]Man(b1-4)GlcNAc(b1-4)GlcNAc
Summary of the method: as §1

[20] = molecular target: Neu5Ac(a2-6)Gal(b1-4)GlcNAc(b1-2)[Neu5Ac(a2-6)Gal(b1-4)GlcNAc(b1-4)]Man(a1-3)[GlcNAc(b1-4)][Neu5Ac(a2-6)Gal(b1-4)GlcNAc(b1-2)[Neu5Ac(a2-6)Gal(b1-4)GlcNAc(b1-6)]Man(a1-6)]Man(b1-4)GlcNAc(b1-4)GlcNAc
Summary of the method: as §1

[21] = molecular target: Neu5Ac(a2-6)Gal(b1-4)GlcNAc(b1-2)[Neu5Ac(a2-6)Gal(b1-4)GlcNAc(b1-4)]Man(a1-3)[GlcNAc(b1-4)][Neu5Ac(a2-6)Gal(b1-4)GlcNAc(b1-4)Man(a1-6)]Man(b1-4)GlcNAc(b1-4)GlcNAc
Summary of the method: as §1

[22] = molecular target: Neu5Ac(a2-6)Gal(b1-4)GlcNAc(b1-2)[Neu5Ac(a2-6)Gal(b1-4)GlcNAc(b1-6)]Man(a1-6)[Neu5Ac(a2-6)Gal(b1-4)GlcNAc(b1-2)Man(a1-3)][GlcNAc(b1-4)]Man(b1-4)GlcNAc(b1-4)GlcNAc
Summary of the method: as §1

[23] = molecular target: Neu5Ac(a2-6)Gal(b1-4)GlcNAc(b1-3)Gal(b1-3)GlcNAc
Summary of the method: as §1

[24] = molecular target: Neu5Ac(a2-6)Gal(b1-4)GlcNAc(b1-3)Gal(b1-4)GlcNAc
Summary of the method: as §1

[25] = molecular target: Neu5Ac(a2-6)Gal(b1-4)GlcNAc(b1-3)Gal(b1-4)GlcNAc(b1-2)Man(a1-3)[Neu5Ac(a2-6)Gal(b1-4)GlcNAc(b1-3)Gal(b1-4)GlcNAc(b1-2)Man(a1-6)]GalNAc
Summary of the method: as §1

[26] = molecular target: Neu5Ac(a2-6)Gal(b1-4)GlcNAc(b1-3)Gal(b1-4)GlcNAc(b1-3)Gal(b1-4)GlcNAc
Summary of the method: as §1

[27] = molecular target: Neu5Ac(a2-6)Gal(b1-4)GlcNAc(b1-3)Gal(b1-4)GlcNAc(b1-3)Gal(b1-4)GlcNAc(b1-2)Man(a1-3)[Neu5Ac(a2-6)Gal(b1-4)GlcNAc(b1-3)Gal(b1-4)GlcNAc(b1-3)Gal(b1-4)GlcNAc(b1-2)Man(a1-6)]GalNAc
Summary of the method: as §1

[28] = molecular target: Neu5Ac(a2-6)Gal(b1-4)GlcNAc(b1-3)Gal(b1-4)GlcNAc(b1-3)GalNAc
Summary of the method: as §1

[29] = molecular target: Neu5Ac(a2-6)Gal(b1-4)GlcNAc(b1-3)Gal(b1-4)GlcNAc(b1-3)[Neu5Ac(a2-6)Gal(b1-4)GlcNAc(b1-3)Gal(b1-4)GlcNAc(b1-6)]GalNAc
Summary of the method: as §1

[30] = molecular target: Neu5Ac(a2-6)Gal(b1-4)GlcNAc(b1-3)Gal(b1-4)GlcNAc(b1-6)[Gal(b1-3)]GalNAc
Summary of the method: as §1

[31] = molecular target: Neu5Ac(a2-6)Gal(b1-4)GlcNAc(b1-3)Gal(b1-4)[Fuc(a1-3)]GlcNAc(b1-3)Gal(b1-4)[Fuc(a1-3)]GlcNAc
Summary of the method: as §1

[32] = molecular target: Neu5Ac(a2-6)Gal(b1-4)GlcNAc(b1-3)GalNAc
Summary of the method: as §1

[33] = molecular target: Neu5Ac(a2-6)Gal(b1-4)GlcNAc(b1-3)[Neu5Ac(a2-6)Gal(b1-4)GlcNAc(b1-6)]GalNAc
Summary of the method: as §1

[34] = molecular target: Neu5Ac(a2-6)Gal(b1-4)GlcNAc(b1-6)GalNAc
Summary of the method: as §1

[35] = molecular target: Neu5Ac(a2-6)Gal(b1-4)GlcNAc(b1-6)[Gal(b1-3)GlcNAc(b1-3)]Gal(b1-4)Glc
Summary of the method: as §1

[36] = molecular target: Neu5Ac(a2-6)Gal(b1-4)GlcNAc(b1-6)[Gal(b1-3)]GalNAc
Summary of the method: as §1

B1: BabA (Helicobacter pylori), O52269_HELPY (protein)
chain: AEDDGFYMSAGYQIGEAAQMVKNTKGIQELSDNYENLSNLLTRYSTLNTLIKLSADPSAVNAARENLGASAKNLIGDTKNSPAYQAVLLAINAAVGFWNVVGYVTQCGGNANGQKSTSSTTIFNNEPGYRSTSITCSLNGHMPGYYGPMSIENFKKLNEAYQILQTALKNGLPALKENNGTVNVTYSYTCSGEGNDNCSLQTTGVTNQNNGTKTETQTIDGKSVTTTISSKVVDSQ
**Q.** Which results are given for B1?
**A.** glycan array binding signal (z-score) [1]: 0.421; glycan array binding signal (z-score) [2]: 0.065; glycan array binding signal (z-score) [3]: -0.428; glycan array binding signal (z-score) [4]: -0.136; glycan array binding signal (z-score) [5]: -0.468; glycan array binding signal (z-score) [6]: -0.355; glycan array binding signal (z-score) [7]: -0.226; glycan array binding signal (z-score) [8]: 0.295; glycan array binding signal (z-score) [9]: 0.136; glycan array binding signal (z-score) [10]: -0.829; glycan array binding signal (z-score) [11]: -0.637; glycan array binding signal (z-score) [12]: -0.169; glycan array binding signal (z-score) [13]: -0.6; glycan array binding signal (z-score) [14]: -0.571; glycan array binding signal (z-score) [15]: 1.19; glycan array binding signal (z-score) [16]: -0.055; glycan array binding signal (z-score) [17]: -0.488; glycan array binding signal (z-score) [18]: -0.4; glycan array binding signal (z-score) [19]: -0.116; glycan array binding signal (z-score) [20]: -0.537; glycan array binding signal (z-score) [21]: -0.618; glycan array binding signal (z-score) [22]: -0.482; glycan array binding signal (z-score) [23]: -0.743; glycan array binding signal (z-score) [24]: -0.4; glycan array binding signal (z-score) [25]: 0.472; glycan array binding signal (z-score) [26]: -0.817; glycan array binding signal (z-score) [27]: 5.39; glycan array binding signal (z-score) [28]: -0.682; glycan array binding signal (z-score) [29]: 2.44; glycan array binding signal (z-score) [30]: -0.845; glycan array binding signal (z-score) [31]: -0.817; glycan array binding signal (z-score) [32]: -0.406; glycan array binding signal (z-score) [33]: -0.5; glycan array binding signal (z-score) [34]: 0.09; glycan array binding signal (z-score) [35]: -0.437; glycan array binding signal (z-score) [36]: -0.555

— the supplement of paper PMC8728848
